According to patent US20220088024A1, “METHODS FOR TREATING CANCER USING TOZADENANT” (Biotie Therapies, Inc., priority 2018, published 2022):
At least one compound was matched to its structure with a doubt left.

Assays:
[1] = tested on: AT-3ova CD73+ tumour (mouse breast carcinoma cell line AT-3); test: Example 1: anti-tumor responses of SYN-115 in the AT-3ova CD73+ tumour cell mouse model (tumor area); type: in vivo, C57/BL6 mice; conditions: AT-3 ova CD73 model; SYN-115 100 mg/kg with anti-PD-1
Description: (§1) The C57BL/6 mouse breast carcinoma cell line AT-3 was obtained from Dr. Trina Stewart (Griffith University, Nathan, QLD, Australia. Tumor cell lines were transduced to express chicken ovalbumin peptide and CD73 as previously described (1, 2, 3). Tumor cells are periodically verified to be Mycoplasma negative by the Victorian Infectious Diseases References Lab (Melbourne, VIC, Australia) by PCR analysis. Tumor cells were grown in DMEM supplemented with 10% FCS, GlutaMAX, and penicillin/streptomycin. 5×10^5 cells were resuspended in PBS and injected s.c. into C57/BL6 mice in a 100 μL volume. At day 14 tumors were measured and mice were randomized into distinct treatment groups to ensure that each group had tumors of similar size at the onset of treatment. Mice were treated i.p. at days 14, 18, 22, and 26 with either isotype control (2A3; 200 μg/mouse) or anti-PD-1 mAb (RMP1-14, 200 μg/mouse) and where indicated SYN-115 (Batch 71236AA002) at the indicated dose or vehicle control once-daily via oral gavage on days 14 to 29. To calculate a dose of SYN-115, mouse weight was estimated to be 20 g per mouse. Therefore, 100 mg/kg=2 mg per mouse in 200 μL, which is equivalent to 10 mg/ml. […] Tumor sizes were determined by width * length and mice were culled when tumors reached the ethical limit of 150 mm^2.

[2] = tested on: AT-3ova CD73+ tumour (mouse breast carcinoma cell line AT-3); test: Example 2: anti-tumor responses of SYN-115 in the AT-3ova CD73+ tumour cell mouse model (tumor area); type: in vivo, C57/BL6 mice; conditions: AT-3ova CD73+ model; SYN-115 10-100 mg/kg with anti-PD-1
Description: as §1, with “where indicated,” for “where indicated”, “of SYN-115” for “of SYN-115,”

[3] = tested on: AT-3ova CD73+ tumour (mouse breast carcinoma cell line AT-3); test: Example 3: anti-tumor responses of SYN-115 QD or BID in the AT-3ova CD73+ tumour cell mouse model (tumor area); type: in vivo, C57/BL6 mice; conditions: SYN-115 at either 30 mg/kg or 100 mg/kg, alone or in combination with anti-PD-1
Description: as §1, with “once or twice-daily” for “once-daily”, “SYN-115” for “SYN-115,”, “[…]” for “200 μL,”

[4] = tested on: CT26 colon carcinoma tumor; test: Example 5: anti-tumor responses of SYN-115 in the CT26 tumor mouse model (tumor area, survival); type: in vivo, BALB/c mice; conditions: SYN-115 at 30 mg/kg, single agent and in combination with anti-PD-1
[5] = tested on: CT26 colon carcinoma tumor; test: Example 6: anti-tumor responses of SYN-115 in the CT26 tumor mouse model (tumor area, survival); type: in vivo, BALB/c mice
[6] = tested on: CT26 colon carcinoma tumor; test: Example 7: SYN-115 dose range as single agent in the CT26 tumor mouse model (tumor area, survival); type: in vivo, BALB/c mice; conditions: particularly at lower doses of SYN-115
Description: The BALB/c mouse colon carcinoma cell line CT26 was cultured in RPMI supplemented with 10% FCS, GlutaMAX, and penicillin/streptomycin. Tumor cells are periodically verified to be Mycoplasma negative by the Victorian Infectious Diseases References Lab (Melbourne, VIC, Australia) by PCR analysis. 1×10^5 cells were resuspended in PBS and injected s.c. into BALB/c mice in a 100 μL volume. At day 7 tumors were measured and mice were randomized into distinct treatment groups to ensure that each group had tumors of similar size at the onset of treatment. Mice were treated with SYN-115 (Batch 71236AA006) at the indicated dose or vehicle control once-daily via oral gavage on days 7 to 20. To calculate a dose of SYN-115 mouse weight was estimated to be 20 g per mouse. Therefore, 100 mg/kg=2 mg per mouse in 200 μL, which is equivalent to 10 mg/ml. To make up 40 mL, 400 milligrams of SYN-115 was weighed and added into a Falcon tube, then 1 mL of Tween 80 was added and mixed into a paste and then 39 mL of 1% Methyl Cellulose was added. The solution was vortexed and then left on a rotating mixer for at least 2 hours and maintained at 4° C. Tumor measurements were taken 2-3 times per week. Tumor sizes were determined by width * length and mice were culled when tumors reached the ethical limit of 150 mm^2.

[7] = tested on: B16F10 CD73 melanoma metastases; test: Example 8: number of lung tumor metastases in the B16F10 CD73 tumor mouse model; type: in vivo, C57/BL6 mice (A2A-/- or Wild-Type); conditions: SYN-115 100 mg/kg once-daily oral, days 0 to 13
Description: The C57/BL6 mouse melanoma cell line B16F10 CD73 was cultured in DMEM supplemented with 10% FCS, GlutaMAX, and penicillin/streptomycin. Tumor cells are periodically verified to be Mycoplasma negative by the Victorian Infectious Diseases References
Lab (Melbourne, VIC, Australia) by PCR analysis. 2×10^5 cells were resuspended in PBS and injected i.v. into C57/BL6 mice (A2A^−/− or Wild-Type) in a 200 μL volume. At day 14, lungs were excised and the number of metastases counted under the dissecting microscope. Mice were dosed with either SYN-115 (Batch 71236AA002) at 100 mg/kg or vehicle control once-daily via oral gavage on days 0 to 13. To calculate a dose of SYN-115, mouse weight was estimated to be 20 g per mouse. Therefore, 100 mg/kg=2 mg per mouse in 200 μL, which is equivalent to 10 mg/ml. To make up 40 mL 400 milligrams of SYN-115 was weighed and added into a Falcon tube, then 1 mL of Tween 80 added and mixed into a paste and then 39 mL of 1% Methyl Cellulose was added. Solution was vortexed and then left on rotating mixer for at least 2 hours and maintained at 4° C.

[8] = tested on: B16F10 Cherry melanoma metastases; test: Example 10: number of lung tumor metastases in the B16F10 tumor mouse model; type: in vivo, C57/BL6 mice; conditions: SYN-115 100 mg/kg once-daily oral, days 0 to 13; new batch
Description: The C57/BL6 mouse melanoma cell line B16F10 Cherry was cultured in DMEM supplemented with 10% FCS, GlutaMAX, and penicillin/streptomycin. Tumor cells are periodically verified to be Mycoplasma negative by the Victorian Infectious Diseases References Lab (Melbourne, VIC, Australia) by PCR analysis. 2×10^5 cells were resuspended in PBS and injected i.v. into C57/BL6 mice in a 200 μL volume. At day 14 lungs were excised and the number of metastases counted under the dissecting microscope. Mice were dosed with either SYN-115 (Batch 71236AA006) at 100 mg/kg or vehicle control once-daily via oral gavage on days 0 to 13. To calculate a dose of SYN-115 mouse weight was estimated to be 20 g per mouse. Therefore, 100 mg/kg=2 mg per mouse in 200 μL, which is equivalent to 10 mg/ml. To make up 40 mL, 400 milligrams of SYN-115 was weighed and added into a Falcon tube, then 1 mL of Tween 80 was added and mixed into a paste and then 39 mL of 1% Methyl Cellulose was added. Solution was vortexed and then left on a rotating mixer for at least 2 hours and maintained at 4° C.

[9] = Example 13: calculation of predicted human dose from mouse and human PK; conditions: mice, oral
Description: Using the PK data above in mice and humans, a human efficacious dose was estimated by identifying a dose in humans that would result in plasma exposures similar to the efficacious dose in the oncology models in mice. The 100 mg/kg/day dose studied for PK in mice and the 180 mg dose studied for PK in humans were the relevant doses used in this estimation.
This predicted human efficacious dose for tozadenant for treating cancer based on the measured PK data can be contrasted to the predicted dose that would be calculated by the less informed but standard approach of using body surface area comparisons between mice and humans, whereby the equivalent dose in humans would be calculated by dividing the dose in mice by 12.3 (see, e.g., Nair A B, Jacob S. A simple practice guide for dose conversion between animals and human. J Basic Clin Pharma 2016;7:27-31). This approach would result in a predicted efficacious dose of 0.24 mg/kg in humans, which is equivalent to approximately 17 mg in a typical 70 kg human. Thus, this prediction using the standard method results in a targeted human dose more than an order of magnitude higher than the one informed by PK.

[10] = tested on: CT26 colon carcinoma tumor; CD8+ and CD4+ T cells; test: Example 14: FACS analysis of tumor and draining lymph node T cells after SYN-115 in the CT26 model; type: in vivo, BALB/c mice
[11] = tested on: CT26 colon carcinoma tumor; CD8+ and CD4+ T cells; test: Example 15: repeat FACS analysis of tumor and draining lymph node T cells after SYN-115 in the CT26 model; type: in vivo, BALB/c mice; conditions: Examples 14 and 15 together
[12] = tested on: mouse tumor models; conditions: mouse tumor models (Beavis et al. 2015); cited from earlier work

## COc1ccc(N2CCOCC2)c2sc(NC(=O)N3CCC(C)(O)CC3)nc12 [SYN-115, 4-hydroxy-4-methyl-piperidine-1-carboxylic acid (4-methoxy-7-morpholin-4-yl-benzothiazol-2-yl)-amide]
[1]
  Effect on anti-tumor efficacy of anti-PD-1: enhanced the anti-tumor efficacy of anti-PD-1
[2]
  Effect on anti-tumor efficacy of anti-PD-1: appeared to enhance the anti-tumor efficacy of anti-PD-1 at early timepoints (Days 0-14), this effect was not sustained
[3]
  Anti-tumor activity: no anti-tumor activity was observed
[4]
  Tumor growth: reduction in tumor growth
[5]; SYN-115 30 or 100 mg/kg with anti-PD-1
  Anti-tumor response in combination with anti-PD-1: no increased anti-tumor response was observed
[5]; SYN-115 at 30 mg/kg
  Single agent activity: Single agent activity was observed
[5]; SYN-115 at 100 mg/kg
  Single agent activity: but not 100 mg/kg
[6]
  Tumor growth: significantly reduced tumor growth
[7]
  Anti-metastatic activity (metastatic burden): potent anti-metastatic activity
[8]
  Tumor metastases: reduced tumor metastases
[9]
  Efficacious doses in mouse oncology models: 2-3 mg/kg
[10]; high dose SYN-115 (100 mg/kg)
  CD4+ T cell function: inhibited
[10]; low dose SYN-115 (1-10 mg/kg) compared to high dose (100 mg/kg)
  CD8+IFNγ+ T cells: increase
[11]
  Effect on CD4+foxp3− population: deleterious
[11]; low-dose SYN-115
  Anti-tumor effects: enhanced anti-tumor effects
  CD8+ T cell numbers, proliferation, IFNγ production and PD-1 expression: increased numbers of CD8+ T cells as well as their proliferation, IFNγ production and PD-1 expression
[12]
  Enhancement of anti-tumor immune responses evoked by anti-PD-1: could be enhanced
